Our source for the binding values is PMC9493394.

No constants are given. Whether binding was seen depends on the method and setting. In cells and extracts the contact can be indirect. A result given as binding can be weak or reduced; the word gives no strength.

For this experiment, the target named is WT GABAA receptor α1 subunit (bait of WT α1β2γ2 GABAA receptors) (human). The experiment is described as follows: co-IP; lysates (500 μg) of HEK293T cells stably expressing WT α1β2γ2 or α1(A322D)β2γ2 immunoprecipitated with mouse anti-α1 antibody and protein A/G plus-agarose beads at 4 °C, Western blot; immunoglobulin G as negative control; three replicates.

B1: ERLIN2 (protein, UniProt O94905 1-339)
chain: MAQLGAVVAVASSFFCASLFSAVHKIEEGHIGVYYRGGALLTSTSGPGFHLMLPFITSYKSVQTTLQTDEVKNVPCGTSGGVMIYFDRIEVVNFLVPNAVYDIVKNYTADYDKALIFNKIHHELNQFCSVHTLQEVYIELFDQIDENLKLALQQDLTSMAPGLVIQAVRVTKPNIPEAIRRNYELMESEKTKLLIAAQKQKVVEKEAETERKKALIEAEKVAQVAEITYGQKVMEKETEKKISEIEDAAFLAREKAKADAECYTAMKIAEANKLKLTPEYLQLMKYKAIASNSKIYFGKDIPNMFMDSAGSVSKQFEGLADKLSFGLEDEPLETATKEN
For B1, the binding result is on record as “binds”.

B2: UNC45A (protein, UniProt Q9H3U1 1-944)
chain: MTVSGPGTPEPRPATPGASSVEQLRKEGNELFKCGDYGGALAAYTQALGLDATPQDQAVLHRNRAACHLKLEDYDKAETEASKAIEKDGGDVKALYRRSQALEKLGRLDQAVLDLQRCVSLEPKNKVFQEALRNIGGQIQEKVRYMSSTDAKVEQMFQILLDPEEKGTEKKQKASQNLVVLAREDAGAEKIFRSNGVQLLQRLLDMGETDLMLAALRTLVGICSEHQSRTVATLSILGTRRVVSILGVESQAVSLAACHLLQVMFDALKEGVKKGFRGKEGAIIVDPARELKVLISNLLDLLTEVGVSGQGRDNALTLLIKAVPRKSLKDPNNSLTLWVIDQGLKKILEVGGSLQDPPGELAVTANSRMSASILLSKLFDDLKCDAERENFHRLCENYIKSWFEGQGLAGKLRAIQTVSCLLQGPCDAGNRALELSGVMESVIALCASEQEEEQLVAVEALIHAAGKAKRASFITANGVSLLKDLYKCSEKDSIRIRALVGLCKLGSAGGTDFSMKQFAEGSTLKLAKQCRKWLCNDQIDAGTRRWAVEGLAYLTFDADVKEEFVEDAAALKALFQLSRLEERSVLFAVASALVNCTNSYDYEEPDPKMVELAKYAKQHVPEQHPKDKPSFVRARVKKLLAAGVVSAMVCMVKTESPVLTSSCRELLSRVFLALVEEVEDRGTVVAQGGGRALIPLALEGTDVGQTKAAQALAKLTITSNPEMTFPGERIYEVVRPLVSLLHLNCSGLQNFEALMALTNLAGISERLRQKILKEKAVPMIEGYMFEEHEMIRRAATECMCNLAMSKEVQDLFEAQGNDRLKLLVLYSGEDDELLQRAAAGGLAMLTSMRPTLCSRIPQVTTHWLEILQALLLSSNQELQHRGAVVVLNMVEASREIASTLMESEMMEILSVLAKGDHSPVTRAAAACLDKAVEYGLIQPNQDGE
Regarding B2, the binding entry is given as “binds”.
